Data on two sequences can be found in PMC5461414.

This data set addresses T1, MdHY5-GST (Malus x domestica) (UniProt L0MZN5).
T1 sequence (looked up, limits assumed): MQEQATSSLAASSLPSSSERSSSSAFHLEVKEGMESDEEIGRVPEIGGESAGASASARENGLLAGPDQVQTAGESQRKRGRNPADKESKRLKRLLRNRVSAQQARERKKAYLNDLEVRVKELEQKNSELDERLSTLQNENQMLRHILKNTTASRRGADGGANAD
Put plainly: EMSA. As to conditions: 1x binding buffer with 2.5% glycerol, 10 mM EDTA, 5 mM MgCl2, 50 mM KCl; 24 °C, 25 min; pH not stated (LightShift Chemiluminescent EMSA kit); recombinant protein; protein details: GST (pGEX-4T-1); label: biotin.

Construct, isoform or probe ends are uncertain for at least one entry. Tags and fusion partners may be left off the protein sequences shown.

As for “GTCGACACCACGTGGAGTTAAATT (double strand) [MdMYB10 promoter G-box-2 probe]”, the binding result is given as “binds”.

Consider “GTCGACGAGCCAATTGCGTCGACAG (double strand) [MdHY5 promoter E-box probe]”, for which the binding result is on record as “binds”.
